Measured values taken from patent publication US6617361B2, “Behavior chemotherapy” (Be Able, LLC, priority 1999, dated 2003).
For at least one compound, name, drawing or mass did not settle the structure. Some results were stated once for a whole list of compounds, not compound by compound.

System: Patient five
Test: Protocol and results with patient five (severe obesity)
Format: in vivo, human
Conditions: for weight lost: by December 1997, combination Ionamin 30 mg + fenfluramine 20 mg + Zoloft 25 mg q.d. since August 1995
Text: This person has been a patient in this practice for many years. Their medical problems are extremely long-lived and include chronic depression, severe obesity, hypertension, stasis dermatitis, and venous insufficiency of the lower extremities, and seborrhea.
In addition they were taking Lasix, Zaroxolyn and potassium for the control of their severe edema and leg pain. They were also using the CPAP machine.
At their insistence Meridia and Adalat were attempted. […] To augment the weight loss the patient was started on Nutrimed three times daily plus a regular dinner.

Structure (SMILES) | weight lost [lb] | body weight, gone up as a result of the drug (after switch to Meridia (with Adalat), 252 lb in October 1998)
CCNC(C)Cc1cccc(C(F)(F)F)c1 (stereo not drawn) [fenfluramine] | > 100 | 
CC(C)CC(N(C)C)C1(c2ccc(Cl)cc2)CCC1.Cl (stereo not drawn) [Meridia] |  | 264¼ lb
CC(C)(N)Cc1ccccc1 [Adipex-P, phentermine] | > 100 | 
